For the experiment, the system named is A549. Briefly: Cytotoxicity against human A549 cells assessed as growth inhibition after 24 hrs by MTT assay. Type of experiment: functional, cell-based. Particulars: A549, 24 h. Background: Tetrazolium dyes change colour on reduction, which living cells bring about.

SMILES strings stand for the structures.

One may read the IC50 as the point on the concentration scale where inhibition reaches its midpoint.

As to `COc1cccc2c1C(=O)c1c(O)c3c(c(O)c1C2=O)C[C@@](O)(C(=O)CO)C[C@@H]3O[C@H]1C[C@H](N)[C@H](O)[C@H](C)O1` [DOXORUBICIN], the IC50 is 800 nM.

The record behind these values is ChEMBL document CHEMBL3124930, “Synthesis of novel 5-(3-alkylquinolin-2-yl)-3-aryl isoxazole derivatives and their cytotoxic activity” (Bioorg Med Chem Lett, 2014).
